From PMC8481544
Results are given in words; binding and its absence hold for the method and conditions named. Binding seen in cells or lysates may run through a third protein.

Sequences of proteins named here, by UniProt entry; tags and fusion partners are left off.
UniProt Q96KQ7: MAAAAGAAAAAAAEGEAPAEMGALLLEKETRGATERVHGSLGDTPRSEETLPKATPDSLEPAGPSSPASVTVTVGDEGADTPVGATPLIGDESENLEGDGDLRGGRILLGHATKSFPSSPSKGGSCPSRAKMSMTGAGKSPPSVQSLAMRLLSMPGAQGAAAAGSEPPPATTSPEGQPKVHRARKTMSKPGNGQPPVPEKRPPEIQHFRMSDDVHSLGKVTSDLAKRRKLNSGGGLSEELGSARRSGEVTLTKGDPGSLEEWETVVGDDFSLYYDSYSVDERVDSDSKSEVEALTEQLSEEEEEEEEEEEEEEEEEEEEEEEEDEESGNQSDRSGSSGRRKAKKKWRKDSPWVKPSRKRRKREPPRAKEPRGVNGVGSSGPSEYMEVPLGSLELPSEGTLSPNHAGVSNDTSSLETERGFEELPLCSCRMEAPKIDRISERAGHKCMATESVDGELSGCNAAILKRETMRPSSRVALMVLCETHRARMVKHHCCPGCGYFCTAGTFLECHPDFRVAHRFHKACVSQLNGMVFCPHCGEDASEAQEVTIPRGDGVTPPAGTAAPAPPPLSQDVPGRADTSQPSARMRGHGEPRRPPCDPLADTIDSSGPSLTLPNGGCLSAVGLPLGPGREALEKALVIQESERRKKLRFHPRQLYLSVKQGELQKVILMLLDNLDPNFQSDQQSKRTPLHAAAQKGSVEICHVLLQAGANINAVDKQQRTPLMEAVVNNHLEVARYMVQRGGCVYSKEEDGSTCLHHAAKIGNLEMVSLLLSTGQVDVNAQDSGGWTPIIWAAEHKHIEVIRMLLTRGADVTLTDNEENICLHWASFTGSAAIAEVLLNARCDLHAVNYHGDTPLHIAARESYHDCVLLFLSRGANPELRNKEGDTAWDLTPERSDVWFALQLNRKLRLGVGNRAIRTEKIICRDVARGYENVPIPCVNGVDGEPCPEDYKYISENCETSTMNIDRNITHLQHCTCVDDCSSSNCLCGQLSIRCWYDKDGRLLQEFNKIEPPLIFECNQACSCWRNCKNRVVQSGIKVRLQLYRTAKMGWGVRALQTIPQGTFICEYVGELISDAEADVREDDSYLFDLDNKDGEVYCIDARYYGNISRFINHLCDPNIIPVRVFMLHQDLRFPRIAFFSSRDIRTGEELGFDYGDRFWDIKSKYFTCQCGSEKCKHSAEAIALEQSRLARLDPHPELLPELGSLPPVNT
UniProt O43791: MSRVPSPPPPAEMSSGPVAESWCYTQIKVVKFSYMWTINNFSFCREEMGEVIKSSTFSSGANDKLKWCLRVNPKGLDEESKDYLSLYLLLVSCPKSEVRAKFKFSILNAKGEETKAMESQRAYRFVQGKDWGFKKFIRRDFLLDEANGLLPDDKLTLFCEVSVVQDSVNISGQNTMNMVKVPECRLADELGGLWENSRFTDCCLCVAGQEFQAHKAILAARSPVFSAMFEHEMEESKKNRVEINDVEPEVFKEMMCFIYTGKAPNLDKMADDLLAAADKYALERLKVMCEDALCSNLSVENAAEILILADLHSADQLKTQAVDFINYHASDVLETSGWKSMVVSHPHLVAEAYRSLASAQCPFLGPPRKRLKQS

Experiments:
[1] = molecular target: Flag-G9a, expressed in 293T cells (UniProt Q96KQ7); experiment: co-IP; 293T cells transfected with both proteins; 20 µM MG132 for 8 h (told for Fig. 2e and 3a); lysis buffer 50 mM Tris-HCl pH 7.5, 150 mM NaCl, 0.5% Nonidet P-40; antibody and protein A/G beads at 4 °C overnight
[2] = molecular target: endogenous G9a (22Rv1 cells) (human (endogenous in 22Rv1)) (UniProt Q96KQ7); experiment: co-IP; endogenous proteins of 22Rv1 cells treated with 20 µM MG132 for 8 h; antibody and protein A/G beads at 4 °C overnight
[3] = molecular target: endogenous SPOP (22Rv1 cells) (human (endogenous in 22Rv1)) (UniProt O43791); experiment: as above

SPOP wild type, ectopically expressed in 293T cells (from UniProt O43791 1-374)
binding [1]: no binding

endogenous SPOP (22Rv1 cells) (from UniProt O43791 1-374)
binding [2]: no binding

endogenous G9a (22Rv1 cells) (from UniProt Q96KQ7 1-1210)
binding [3]: no binding
